Patent US20100143420A1, “MULTI-PHASIC PHARMACEUTICAL FORMULATIONS OF POORLY WATER-SOLUBLE DRUGS FOR REDUCED FED/FASTED VARIABILITY AND IMPROVED ORAL BIOAVAILABILITY” (priority 2007, published 2010)
At least one compound was matched to its structure with a doubt left.

Assay: Particle size distribution of fenofibrate
Format: physicochemical
Conditions: raw, before particle size reduction (FIG. 1)

Question: With `CC(C)OC(=O)C(C)(C)Oc1ccc(C(=O)c2ccc(Cl)cc2)cc1` [raw fenofibrate, fenofibrate] as the molecule, how does the mean particle size read?
Answer: The mean particle size was 57 μm.
